Values from PubChem BioAssay AID1259254 (NCATS, 2017).

Screen: 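Gene knock-downs that lead to re-replication, shown by excess G2 DNA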 (primary screen)
Cells: human HCT116 colorectal cancer cells
Reagents: single siRNA against human genes
Time to read-out: 3 days
Measurement: 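Nuclei stained with Hoechst and imaged; cell-cycle phase assigned by DNA content; G2 share scaled per plate, non-targeting siRNA 0%, GMNN siRNA 100%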
Scale: G2 robust z-score and G2 cells, % of GMNN control: higher = more G2 cells, more excess DNA replication; raw share of cells in G2: higher = larger share of cells with G2 DNA content
Active means: 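An siRNA counts as active if its G2 robust z-score lies at least 5 MADs above the screen median; here such calls match roughly 38% of GMNN control or more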
Shown is an unselected part of about 59,000 reagents. About 1,550 of them (2.6%) were called active. 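G2 share is only a proxy for re-replication; each gene was hit by three separate siRNAs, and active genes were retested.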 Raw values vary from plate to plate and are shown uncorrected. A number with no mark means an inactive call. The numbers tell different reagents against one gene apart. The record does not give: the amount of reagent.

gene knocked down	siRNA no.	G2 robust z-score	G2 cells, % of GMNN control	raw share of cells in G2 (%)
ZNF470 (zinc finger protein 470)	1	2.2	18.4	9.43
ZNF470 (zinc finger protein 470)	2	2.81	22.8	11.1
ZNF470 (zinc finger protein 470)	3	-0.52	-0.689	3.28
WNT10B (Wnt family member 10B)	1	1.86	16.1	12.3
WNT10B (Wnt family member 10B)	2	-0.156	1.87	4.64
WNT10B (Wnt family member 10B)	3	-0.0599	2.55	4.25
PRKCD (protein kinase C delta)	1	2.33	19.4	12
PRKCD (protein kinase C delta)	2	-1.82	-9.81	2.1
PRKCD (protein kinase C delta)	3	-0.0748	2.44	4.89
LOC730020 (retired record)	1	-0.561	-0.978	3.71
LOC730020 (retired record)	2	-0.13	2.05	3.91
LOC730020 (retired record)	3	-0.799	-2.66	2.2
DUXA (double homeobox A)	1	1.41	12.9	8.98
DUXA (double homeobox A)	2	3.75	29.3	16.4
DUXA (double homeobox A)	3	2.09	17.7	13.5
IRAK3 (interleukin 1 receptor associated kinase 3)	1	0.0245	3.14	6.57
IRAK3 (interleukin 1 receptor associated kinase 3)	2	0.0397	3.25	6.37
IRAK3 (interleukin 1 receptor associated kinase 3)	3	-0.669	-1.74	3.12
GBP6 (guanylate binding protein family member 6)	1	4.4	33.9	18.9
GBP6 (guanylate binding protein family member 6)	2	-1.62	-8.4	1.95
GBP6 (guanylate binding protein family member 6)	3	2.91	23.4	13.3
ERLIN1 (ER lipid raft associated 1)	1	-0.89	-3.29	3.69
ERLIN1 (ER lipid raft associated 1)	2	0.858	9	7.85
ERLIN1 (ER lipid raft associated 1)	3	-0.275	1.03	3.56
CPS1 (carbamoyl-phosphate synthase 1)	1	-0.169	1.78	5.6
CPS1 (carbamoyl-phosphate synthase 1)	2	3.05	24.4	13.9
CPS1 (carbamoyl-phosphate synthase 1)	3	-0.811	-2.74	3.15
CLIC6 (CLIC family member 6)	1	2.29	19.1	12.2
CLIC6 (CLIC family member 6)	2	-0.389	0.228	4.86
CLIC6 (CLIC family member 6)	3	0.485	6.38	6.87
RPP21 (ribonuclease P subunit p21)	1	1.45	13.2	9.67
RPP21 (ribonuclease P subunit p21)	2	0.928	9.5	9.39
RPP21 (ribonuclease P subunit p21)	3	0.319	5.21	6.08
KCNK15 (potassium two pore domain channel subfamily K member 15)	1	0.997	9.98	8.92
KCNK15 (potassium two pore domain channel subfamily K member 15)	2	-0.934	-3.61	3.56
KCNK15 (potassium two pore domain channel subfamily K member 15)	3	-0.492	-0.496	4.18
PAXBP1 (PAX3 and PAX7 binding protein 1)	1	0.488	6.4	6.66
PAXBP1 (PAX3 and PAX7 binding protein 1)	2	-0.646	-1.58	2.86
PAXBP1 (PAX3 and PAX7 binding protein 1)	3	-0.987	-3.98	0.655
EP300 (EP300 lysine acetyltransferase)	1	2.89	23.3	13.7
EP300 (EP300 lysine acetyltransferase)	2	0.0551	3.36	6.54
EP300 (EP300 lysine acetyltransferase)	3	0.0918	3.61	4.95
PEG10 (paternally expressed 10)	1	-0.208	1.5	5.57
PEG10 (paternally expressed 10)	2	-1.05	-4.44	2.3
PEG10 (paternally expressed 10)	3	0.301	5.09	5.08
FBXL17 (F-box and leucine rich repeat protein 17)	1	0.35	5.43	6.94
FBXL17 (F-box and leucine rich repeat protein 17)	2	2.92	23.5	15.1
FBXL17 (F-box and leucine rich repeat protein 17)	3	1.69	14.9	6.62

9 entries from above, arranged by “G2 cells, % of GMNN control”, lowest first.
gene knocked down	siRNA no.	G2 robust z-score	G2 cells, % of GMNN control	raw share of cells in G2 (%)
CPS1 (carbamoyl-phosphate synthase 1)	3	-0.811	-2.74	3.15
CLIC6 (CLIC family member 6)	2	-0.389	0.228	4.86
RPP21 (ribonuclease P subunit p21)	3	0.319	5.21	6.08
CLIC6 (CLIC family member 6)	3	0.485	6.38	6.87
RPP21 (ribonuclease P subunit p21)	2	0.928	9.5	9.39
KCNK15 (potassium two pore domain channel subfamily K member 15)	1	0.997	9.98	8.92
RPP21 (ribonuclease P subunit p21)	1	1.45	13.2	9.67
CLIC6 (CLIC family member 6)	1	2.29	19.1	12.2
CPS1 (carbamoyl-phosphate synthase 1)	2	3.05	24.4	13.9

Additional results follow:
gene knocked down	siRNA no.	G2 robust z-score	G2 cells, % of GMNN control	raw share of cells in G2 (%)
SLC25A26	1	2.87	23.1	14.9
SLC25A26	2	-0.231	1.35	4.99
SLC25A26	3	0.363	5.52	8.23
TCAP (titin-cap)	1	-0.159	1.85	5.91
TCAP (titin-cap)	2	8.47 (active)	62.5	27.1
TCAP (titin-cap)	3	-0.738	-2.23	3.53
KDM4D (lysine demethylase 4D)	1	-0.853	-3.03	3.36
KDM4D (lysine demethylase 4D)	2	-0.248	1.22	4.65
KDM4D (lysine demethylase 4D)	3	-0.0924	2.32	3.88
ISOC2 (isochorismatase domain containing 2)	1	-0.411	0.0762	4.22
ISOC2 (isochorismatase domain containing 2)	2	2.48	20.4	13.9
ISOC2 (isochorismatase domain containing 2)	3	1.34	12.4	9.39
ACOT11 (acyl-CoA thioesterase 11)	1	2.3	19.1	10.2
ACOT11 (acyl-CoA thioesterase 11)	2	1	10	10.7
ACOT11 (acyl-CoA thioesterase 11)	3	5.65 (active)	42.7	18.4
NTSR1 (neurotensin receptor 1)	1	-1.53	-7.83	3.04
NTSR1 (neurotensin receptor 1)	2	-0.449	-0.19	4.45
NTSR1 (neurotensin receptor 1)	3	-1.11	-4.87	1.77
ALDH3A1 (aldehyde dehydrogenase 3 family member A1)	1	-0.343	0.554	5.27
ALDH3A1 (aldehyde dehydrogenase 3 family member A1)	2	-1.18	-5.34	2.9
ALDH3A1 (aldehyde dehydrogenase 3 family member A1)	3	0.0274	3.16	5.17
ZNF10 (zinc finger protein 10)	1	-0.425	-0.0249	3.52
ZNF10 (zinc finger protein 10)	2	-1.4	-6.87	2.93
ZNF10 (zinc finger protein 10)	3	-0.415	0.0442	3.36
MFAP3L (microfibril associated protein 3 like)	1	-0.205	1.53	4.03
MFAP3L (microfibril associated protein 3 like)	2	-0.453	-0.222	5.89
MFAP3L (microfibril associated protein 3 like)	3	0.261	4.8	5.35
BTG2 (BTG anti-proliferation factor 2)	1	-0.0331	2.73	6.34
BTG2 (BTG anti-proliferation factor 2)	2	-0.564	-1	3.5
BTG2 (BTG anti-proliferation factor 2)	3	0.118	3.8	4.69
EEF1AKMT2 (EEF1A lysine methyltransferase 2)	1	-0.176	1.73	4.44
EEF1AKMT2 (EEF1A lysine methyltransferase 2)	2	-0.0511	2.61	4.55
EEF1AKMT2 (EEF1A lysine methyltransferase 2)	3	-0.434	-0.0882	4.75
EIF2B3 (eukaryotic translation initiation factor 2B subunit gamma)	1	0.363	5.52	6.68
EIF2B3 (eukaryotic translation initiation factor 2B subunit gamma)	2	0.097	3.65	6.55
EIF2B3 (eukaryotic translation initiation factor 2B subunit gamma)	3	-0.244	1.25	5.11
HHAT (hedgehog acyltransferase)	1	1.23	11.6	8.6
HHAT (hedgehog acyltransferase)	2	-0.505	-0.583	4.09
HHAT (hedgehog acyltransferase)	3	1.48	13.4	12.3
